Test results reported in the supplement of paper PMC12578635.
± gives the standard deviation of the averaged measurements. This is one part of the list. Repeats are few or missing, and single values can be far off.

Tested on: RAW 264.7 macrophages infected with S. aureus JE2-lux
Assay: host macrophage viability (CellTiter-Fluor) relative to DMSO vehicle; higher = more viable host cells
Details: 10 µM; treatment time 4 h; gentamicin 50 µg/ml

SMILES | host macrophage viability [%]
C=CCN1C(=O)/C(=C/c2ccco2)S/C1=N/c1nccs1 | 110
CCOC(=O)N1CCN(C(=O)CCCn2c(=S)[nH]c3c([nH]c4ccc(OC)cc43)c2=O)CC1 | 98.3
COc1cccc2c1Oc1nc(-c3ccccc3)[nH]c(=S)c1C2 | 122
CCn1nc(-n2cnnc2)c(NS(=O)(=O)c2ccc(C3CCCCC3)cc2)c1C | 109
COc1ccccc1NC(=O)N1CCCC(C(=O)NCc2ccc(F)cc2)C1 (stereo unspecified) | 118
Cc1cc2cc(CCNC(=O)c3ccc(S(=O)(=O)N4CCOCC4)cc3)c(=O)[nH]c2cc1C | 135
O=C(CSc1nc(-c2ccccc2Cl)ns1)Nc1ccc2c(c1)OCO2 | 108 ± 6.9
Cc1nc2c(ccc3nc(NC(=O)c4ccco4)sc32)s1 | 109 ± 10
O=C(CNc1ccc(S(=O)(=O)C(F)(F)F)cc1[N+](=O)[O-])NC1CCS(=O)(=O)C1 (stereo unspecified) | 97.2
CCOC(=O)c1ccc(Nc2nnc3nc(C)cc(C)n23)cc1 | 103
CCOc1ccc(-c2nc3c(c(SCC(N)=O)n2)Cc2cccc(C)c2O3)cc1 | 132
CCCc1cc(=O)[nH]c(SCC(=O)NCc2ccc3c(c2)OCO3)n1 | 106
CCCc1cc(=O)[nH]c2nnc(SCC(=O)N(C)c3ccccc3)n12 | 93.3
CCc1ccc2c(c1)c1nnc(SCC(=O)c3ccc(F)cc3)nc1n2C | 103
Cc1cccc(C2CCCN2C(=O)c2cc(C(C)C)on2)c1 (stereo unspecified) | 119
CCc1ccc2c(c1)c1nnc(SCC(=O)Nc3nnc(C)s3)nc1n2C | 124
CCOCc1nnc(NC(=O)c2csc(C(C)=O)c2)s1 | 109
CCOC(=O)c1oc2cc(O)cc(O)c2c(=O)c1-c1ccc(OC)c(OC)c1 | 94.9
CCCCOc1ccc(-c2cc3c(N4CCN(c5ccc(OC)cc5)CC4)nccn3n2)cc1 | 110
CCc1ccccc1-n1ccn(CC(=O)c2ccc(F)cc2)c(=O)c1=O | 124
Nc1c(C(=O)c2ccc(Br)cc2)sc2nc3c(cc12)CCC3 | 126
O=S(=O)(c1cc(-c2noc(C3CC3)n2)cs1)N1CCn2c1nc1ccccc12 | 96.2
O=C(NCc1ccccc1)C(c1ccco1)N(Cc1ccc(F)cc1)C(=O)c1ccccn1 (stereo unspecified) | 95.9
COc1ccc(OC)c(-n2c(C)cn3c4c(=O)[nH]c(=O)n(C)c4nc23)c1 | 119
CCOC(=O)c1ccc(NC(=O)CSc2nccn2-c2cccc(C)c2)cc1 | 119
Cc1cc2ccccc2n2c(=O)n(CCNC(=O)CN3C(=O)CCC3=O)nc12 | 114

SMILES | host macrophage viability [%]
C/C(=N/NC(=O)CSc1nc2ccccc2[nH]1)c1cccs1 | 116
CC(=O)Nc1ccc(Nc2nc(-c3ccccc3)c3cc(C)ccc3n2)cc1 | 124
CN1C(=O)c2cccc(NC(=O)c3cc(=O)c4ccccc4o3)c2C1=O | 123
COc1cccc(/C=N/NC(=O)c2n[nH]c3c2CCc2ccccc2-3)c1 | 107
CCCc1cc(=O)[nH]c(SCC(=O)Nc2cc(C)on2)n1 | 95.2
CSc1nc2ccc3nc(Nc4nc5cc6c(cc5s4)OCO6)sc3c2s1 | 110 ± 7.4
Cc1ccc(N2C(=O)CC(Sc3ccccc3C(=O)O)C2=O)c(Br)c1 (stereo unspecified) | 111
COc1ccc2o/c(=N\c3cccc(C#N)c3)c(C(=O)NC(C)=O)cc2c1 | 96.5
CC(C)n1c(CN2CCN(c3ccc(F)cc3)CC2)nc2c1c(=O)n(C)c(=O)n2C | 125
COc1ccccc1Nc1nc(NCc2ccco2)c2ccccc2n1 | 120
O=C(CSc1nc(O)c2nc[nH]c2n1)N1CCN(c2ccccc2F)CC1 | 101
COc1cccc(NC(=O)CSc2ncnc3c2sc2nc4ccccc4cc23)c1 | 110
CC(NC(=O)Cc1csc2nc(-c3ccc(F)cc3)cn12)c1ccccc1 (stereo unspecified) | 98.4
O=C(NCc1ccco1)c1cnc2n(c1=O)CCS2 | 137
CCOC(=O)c1sc(NC(=O)CSC2=NN3CCCC(=O)N=C3S2)c(C(=O)OCC)c1C | 120
COc1c(Br)ccc2c1sc1ncnc(OC)c12 | 116
CCS(=O)(=O)c1cccc(C(=O)Nc2nc3c(s2)COc2ccccc2-3)c1 | 124
COC(=O)c1ccc2nc(NC(=O)c3ccc(C)cc3C)sc2c1 | 117
COc1ccc(C(=O)Nc2ccc3nc[nH]c3c2)cc1OC | 107
O=C(Nc1ccon1)c1cccn(OCc2ccccc2F)c1=O | 102
CCS(=O)(=O)c1ccc(C(=O)/N=c2/sc3cccc(Cl)c3n2C)cc1 | 102
Cc1ccc(C)c2[nH]c(=O)c(CCNC(=O)COc3ccc(Cl)cc3Cl)cc12 | 130
O=C1COc2ccc(S(=O)(=O)Nc3cccc(C(=O)N4CCOCC4)c3)cc2N1 | 91.6
Cc1csc2nc(O)c(C(=O)NCc3ccccn3)c(=O)n12 | 103
Cc1sc(NC(=O)c2ccco2)nc1-c1ccc2c(c1)CCN2C(=O)C1CC1 | 107

An excerpt of these results, as tab-separated lines.
SMILES	host macrophage viability [%]
COc1ccccc1Nc1nc(NCc2ccco2)c2ccccc2n1	120
O=C(CSc1nc(O)c2nc[nH]c2n1)N1CCN(c2ccccc2F)CC1	101
COc1cccc(NC(=O)CSc2ncnc3c2sc2nc4ccccc4cc23)c1	110
